Data as given in patent publication US11767289B2, “Methods and compositions for pest control” (VMI Foundation, priority 2010, dated 2023).

Legend:
[1] = test system: Megalomyrmex wallecei males; assay: GC-MS of methanol extracts of winged males (male tyramides); conditions: collection RMMA050710-01
[2] = test system: Megalomyrmex staudingeri males; assay: as above; conditions: collection RMMA040613-05
[3] = test system: Monomorium ebeninum males; assay: GC-MS analysis of male ant extracts for tyramides; conditions: M. ebeninum males trisected into heads, thoraxes, gasters

Compound	Tyramides, relative ratios of the compounds [1]	Tyramides, relative ratios of the compounds [2]	body part in which the compounds occur (trisection) [3]
CCCC(=O)NCCc1ccc(O)cc1 [Compound 3, N-[2-(4-hydroxyphenyl)ethyl]butanamide]	1	1.5	found only in the gasters of the ants
CC(C)CC(=O)C(=O)NCCc1ccc(O)cc1 [Compound 7c, N-[2-(4-Hydroxyphenyl)ethyl]-4-methyl-2-oxopentanamide]			found only in the gasters of the ants
CCCCCC(=O)NCCc1ccc(O)cc1 [Compound 6, N-[2-(4-hydroxyphenyl)ethyl]hexanamide]	1	1	
